These are yes or no findings as the source states them, for the method shown.
Target: A11_(2-196), full-length annexin A11 proline-rich domain, GB1 tag cleaved (human) (UniProt P50995)
Assay: AUC; sedimentation velocity, 50,000 rpm, 20 °C, absorbance at 280 nm; individual constructs at ~20 and ~50 μM and mixtures of A11-PRD constructs with S100A6; both purified

- binding: no binding
Substance: A11_(2-196), full-length annexin A11 proline-rich domain, GB1 tag cleaved (from UniProt P50995 2-196) (domain or fragment)

— article PMC10401653
